The values below come from doi:10.1101/2022.12.22.521673 (bioRxiv, 2022).

The chains behind the UniProt entries cited, without tags or fusion partners.
UniProt P04147: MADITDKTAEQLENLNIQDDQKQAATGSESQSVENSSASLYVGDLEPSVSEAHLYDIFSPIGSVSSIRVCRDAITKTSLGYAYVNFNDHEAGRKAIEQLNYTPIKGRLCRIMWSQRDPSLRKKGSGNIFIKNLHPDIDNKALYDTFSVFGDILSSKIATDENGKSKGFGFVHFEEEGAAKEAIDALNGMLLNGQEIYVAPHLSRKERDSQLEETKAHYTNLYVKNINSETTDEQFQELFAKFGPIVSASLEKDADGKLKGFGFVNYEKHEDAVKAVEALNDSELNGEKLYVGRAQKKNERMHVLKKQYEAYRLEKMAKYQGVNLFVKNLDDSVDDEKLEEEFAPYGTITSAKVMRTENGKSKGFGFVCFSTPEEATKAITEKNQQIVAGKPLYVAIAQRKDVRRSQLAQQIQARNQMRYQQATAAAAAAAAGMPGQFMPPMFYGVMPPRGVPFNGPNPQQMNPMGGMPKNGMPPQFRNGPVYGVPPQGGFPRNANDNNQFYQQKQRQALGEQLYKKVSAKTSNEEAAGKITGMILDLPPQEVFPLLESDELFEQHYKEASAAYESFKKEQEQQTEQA

In this experiment the target is T1, Rim4-FLAG (S. cerevisiae) (UniProt P38741).
T1 sequence: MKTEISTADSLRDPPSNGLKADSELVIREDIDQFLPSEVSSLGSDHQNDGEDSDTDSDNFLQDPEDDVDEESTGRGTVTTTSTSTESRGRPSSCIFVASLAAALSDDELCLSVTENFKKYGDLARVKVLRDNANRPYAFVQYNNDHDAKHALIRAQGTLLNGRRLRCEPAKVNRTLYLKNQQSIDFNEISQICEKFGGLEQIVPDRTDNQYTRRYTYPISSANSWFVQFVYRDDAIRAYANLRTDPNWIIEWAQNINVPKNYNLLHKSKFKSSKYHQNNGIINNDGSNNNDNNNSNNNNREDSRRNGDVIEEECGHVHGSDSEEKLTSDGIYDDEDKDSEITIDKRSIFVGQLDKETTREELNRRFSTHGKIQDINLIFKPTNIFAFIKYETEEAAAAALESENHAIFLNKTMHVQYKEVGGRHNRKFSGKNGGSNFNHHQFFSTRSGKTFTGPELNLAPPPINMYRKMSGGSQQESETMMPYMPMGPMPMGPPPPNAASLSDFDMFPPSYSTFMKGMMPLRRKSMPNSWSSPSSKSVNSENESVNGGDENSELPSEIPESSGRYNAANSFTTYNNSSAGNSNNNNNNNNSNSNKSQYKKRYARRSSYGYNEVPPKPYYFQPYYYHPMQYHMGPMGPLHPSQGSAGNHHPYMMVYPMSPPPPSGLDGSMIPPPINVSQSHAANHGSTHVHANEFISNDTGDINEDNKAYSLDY
Nature of the experiment: affinity purification with mass spectrometry.

These are yes or no findings as the source states them, for the method shown. In cells and extracts the contact can be indirect. These calls come from enrichment with a bait or labelling near it, and not all partners need be listed. Where a sequence is shown, tags or fusion partners need not be part of it.

On to Pab1 (from UniProt P04147 1-577), for which the binding entry is given as “binds”.
